These are yes or no findings as the source states them, for the method shown. In cells and extracts the contact can be indirect. These calls come from enrichment with a bait or labelling near it, and not all partners need be listed. Where a sequence is shown, tags or fusion partners need not be part of it.
Target: T1, uSLC35A4 protein with C-terminal Flag tag (human) (UniProt L0R6Q1)
T1 sequence: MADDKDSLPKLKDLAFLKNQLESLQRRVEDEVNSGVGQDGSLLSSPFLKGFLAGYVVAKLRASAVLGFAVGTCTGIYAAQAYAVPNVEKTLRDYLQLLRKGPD
Test: affinity purification with mass spectrometry; Flag-tagged ORF peptide expressed in HEK293T (48 h), lysed in 50 mM Tris HCl pH 7.4, 150 mM NaCl, 1 mM EDTA, 1% Triton X-100; anti-Flag M2 magnetic beads overnight at 4 °C; in-gel digestion, label-free quantification; empty vector as negative control, triplicate

The chains behind the UniProt entries cited, without tags or fusion partners.
UniProt P21796: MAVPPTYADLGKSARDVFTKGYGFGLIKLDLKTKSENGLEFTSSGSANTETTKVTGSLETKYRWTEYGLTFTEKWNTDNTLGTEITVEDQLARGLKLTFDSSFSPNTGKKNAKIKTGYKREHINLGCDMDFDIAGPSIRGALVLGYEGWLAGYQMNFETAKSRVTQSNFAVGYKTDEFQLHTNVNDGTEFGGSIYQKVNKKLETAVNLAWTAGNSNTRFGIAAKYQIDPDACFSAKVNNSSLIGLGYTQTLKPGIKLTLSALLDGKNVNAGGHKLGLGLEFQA

- binding: binds
Substance: VDAC1 (from UniProt P21796 1-283)
